# Data from PubChem BioAssay AID1259415 (National Center for Advancing Translational Sciences (NCATS), 2018).
# Several values for one entry are separate records, joined by “and”; a condition that tells them apart may be missing. Equal values may be shown once. Out of some 410,000 compounds screened, about 18,000 (4.4%) were called active. The inconclusive results got no clear call from the source; some entries with a clear call stand among them for comparison. No stated cut-off is given here; in the data, active means activity change below about -60%; inconclusive means no clear call, values can overlap the other calls; inactive means above about -39%.
# Assay: qHTS Assay for inhibitors of the human cytomegalovirus (HCMV)
# Conditions: HFF cells, HCMV-luciferase reporter, 72 h; at 57.5 µM; active compounds read low
# Summary of the method: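 Human foreskin fibroblasts infected with luciferase-reporter HCMV at MOI 1 PFU/cell, compounds at two doses. Luciferase measured 72 h post infection; normalized to buffer-only basal and Salinomycin (10uM) controls.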
# On the % scale 0 is the no-effect control and ±100 the full control effect.
row,Compound,"activity change, negative = inhibition"
1,CCC(C(=O)NCc1ccccc1Cl)n1c(=O)c2cccn2c2ccccc21 (configuration not stated),inconclusive: -45.8%
2,Cc1ccc(-c2nnn(CC(=O)N(CCCO)C(C(=O)NC3CCCC3)c3ccc(F)cc3)n2)o1 (configuration not stated),inconclusive: -47.3%
3,O=C(C#Cc1ccccc1)Nc1ccc(F)cc1,active: -102%
4,O=C(O)c1ccc(Nc2ncnc3scc(-c4ccccc4)c23)cc1,inconclusive: -43%
5,O=C(O)Cc1c(C(=O)O)nnn1-c1cccc(C(F)(F)F)c1,inactive: -2.66%
6,O=C(Cn1ncc(Cl)c(Cl)c1=O)N1CCN(Cc2ccccc2)CC1,active: -82.6%
7,Cc1cccc(C)c1-n1c(C)cc(/C=N\Nc2ccc([N+](=O)[O-])cn2)c1C,inconclusive: -60%
8,O=C(C(c1ccccc1)c1ccccc1)N1CCN(c2ccccn2)CC1,inconclusive: -47.3%
9,COc1ccccc1OCC(=O)Nc1cc(Cl)ccc1N1CCCCC1,inconclusive: -59.5%
10,COc1ccc(C)cc1S(=O)(=O)N(CC(=O)Nc1cccc([N+](=O)[O-])c1)c1ccccc1,inconclusive: -54.6%
11,COc1ccc2c(c1)-c1nc(N)sc1CC2,inconclusive: -44.7%
12,Cc1nc2ccc(OC(=O)c3ccccc3)cc2s1,inactive: 57.3%
13,CCOc1ccc(N(CC(=O)N/N=C/c2ccccn2)S(=O)(=O)c2ccc(Cl)cc2)cc1,inconclusive: -51.2%
14,O=C(C1=C[C@@H](c2ccccc2)C[C@@H](OCc2ccc(CO)cc2)O1)N1CCOCC1,inactive: -0.422%
15,Cc1cc(C)n(CCCN2C(=O)c3cccc4cccc(c34)C2=O)n1,inconclusive: -47.3%
16,CCC(=O)Nc1ccc(C(=O)CSc2nnc(CNc3ccc(Cl)cc3)o2)cc1OC,active: -87.9%
17,CC(C(=O)Nc1cccc(Br)c1)c1ccc([N+](=O)[O-])cc1 (configuration not stated),inconclusive: -40.6%
18,N/C(=N\OC(=O)CC1CCCCC1)c1ccc(Cl)cc1,inactive: 11.1%
19,CC(=O)Nc1ccc2c(c1)c1ccccc1n2C(C)=O,inconclusive: -45.6%
20,Cc1ccc(C(=O)c2cn(Cc3ccccc3)c3c(F)cc(F)cc3c2=O)cc1,inconclusive: -44%
21,COc1ccc(N2CCN(c3ncnc4c3nnn4Cc3ccccc3Cl)CC2)cc1,inconclusive: -42.6%
22,CN1CCN(C(=O)c2ccc(S(=O)(=O)c3ccc(Br)cc3)cc2)CC1,inconclusive: -41.1%

# 3 compounds already listed, sorted by SMILES length, high to low:
row,Compound,"activity change, negative = inhibition"
17,CC(C(=O)Nc1cccc(Br)c1)c1ccc([N+](=O)[O-])cc1 (configuration not stated),inconclusive: -40.6%
18,N/C(=N\OC(=O)CC1CCCCC1)c1ccc(Cl)cc1,inactive: 11.1%
3,O=C(C#Cc1ccccc1)Nc1ccc(F)cc1,active: -102%

# Following part.

row,Compound,"activity change, negative = inhibition"
1,CCC(=O)N1CCN(c2ccc(NC(=O)COc3ccccc3Cl)cc2)CC1,inconclusive: -59.6%
2,Cc1cc(C)c(NC(=O)CN2C(=O)NC(CCc3ccccc3)C2=O)c(C)c1 (configuration not stated),inconclusive: -46.4%
3,COc1ccc(C(=O)CSC#N)cc1OC,inconclusive: -58.3%
4,Cc1cc(-n2c(C)cc(C(=O)CSc3nnnn3-c3ccc(Cl)cc3)c2C)no1,inconclusive: -40.9%
5,CC1CCCN(S(=O)(=O)c2csc(C(N)=O)c2)C1 (configuration not stated),inconclusive: -49.8%
6,COc1cccc(C2=NO[C@@H]3C(=O)N(Cc4ccccc4)C(=O)[C@H]23)c1OC,inactive: 45.2%
7,Cc1nn(CC(O)CN2c3ccccc3Sc3ccccc32)c(C)c1Br (configuration not stated),inactive: -13.1%
8,CCc1ccccc1NC(=O)Nc1ccc(F)cc1F,inconclusive: -54.5%
9,Cc1cccc(OC(C)C(=O)N/N=C\c2ccncc2)c1 (configuration not stated),inconclusive: -43.6%
10,NNc1nnc2c3cc(F)ccc3n(Cc3ccccc3)c2n1,active: -94.7%
11,CCC(=O)N(Cc1ccccc1)c1ccccn1,inconclusive: -47.7%
12,Cc1ccccc1NC(=S)NC(=O)C1CCCCC1,inactive: 42.6%
13,Fc1ccc(-[n+]2nc(Nc3ccccc3)sc2-c2ccc(OCc3ccccc3)cc2)cc1,inconclusive: -48.2%
14,Cc1cc(=O)n2nc(N3CCCC(C(=O)NCCCN4CC(C)CC(C)C4)C3)sc2n1 (configuration not stated),inconclusive: -40.6%
15,Clc1cccc(Cl)c1CSc1cc2c(nn1)-c1ccccc1CC2,inconclusive: -46.6%
16,O=C(N/N=C\c1ccc(OC(=O)c2ccco2)cc1)c1ccc(Cl)cc1,inactive: -21.9%
17,CCC(=O)N1CCN(c2ccc(NC(=S)NC(=O)COc3ccccc3)cc2)CC1,inactive: -33.3%
18,CN1CCN(/N=C/c2ccc(-c3ccccc3)cc2)CC1,active: -85.5%
19,COC(=O)c1ccc2c(c1)N(CC(=O)Nc1ccc(C)c(C)c1)C(=O)c1ccccc1S2,inactive: 6.12%
20,CC(=O)N1CCN(CC(=O)Nc2ccc(Cl)c(S(=O)(=O)N(C)C)c2)CC1,inconclusive: -47.9%
21,COC(=O)C(CO)Nc1ncnc2onc(-c3ccc(F)cc3)c12 (configuration not stated),inactive: -28.4%
22,COc1cccc(Cc2n[nH]c(=S)n2Cc2ccco2)c1,inconclusive: -40.5%

row,Compound,"activity change, negative = inhibition"
1,COC(=O)/C(=C\c1ccc2c(c1)c1ccccc1n2C)NC(=O)c1ccccc1,inconclusive: -50.7%
2,Cc1ccc(C)c(N2CCN(C(=O)NCc3noc4ccccc34)CC2)c1,inactive: 4.08%
3,Cn1c(SCc2c(F)cccc2Cl)nc2ccccc2c1=O,inconclusive: -40.1%
4,CCOC(=O)C1=C(N)OC2=C(C(=O)CC(C)(C)C2)C1c1ccc(CC)s1 (configuration not stated),inconclusive: -46.8%
5,CCOC(=O)c1sc(NC(=O)c2cc(-c3ccc(C)cc3)nc3ccccc23)c(C#N)c1C,active: -103%
6,COCCNC(=O)c1cc(-c2cccc(Cl)c2)on1,active: -70.5%
7,COc1ccc2c(c1)C(NC(C)=O)CCc1cc(OC)c(OC)c(OC)c1-2 (configuration not stated),active: -67.1%
8,Cc1cccc(C(=O)N2CCC(N3CCC(C(=O)N4CCOCC4)CC3)CC2)c1,inconclusive: -52.7%
9,COc1ccc(OC)c(-n2nnnc2SCC(=O)Nc2ccc3c(c2)OCCO3)c1,inactive: 1.39%
10,Cc1c(C(=O)N2CCN(c3ncccn3)CC2)oc2c(Cl)cccc12,inconclusive: -42.8%
11,c1ccc2nc(SCc3cn4ccccc4n3)cnc2c1,inconclusive: -42.8%
12,Cc1ccc(CNc2nc(NCc3ccccc3)nc3ccsc23)c(C)c1,active: -62.9%
13,CCCCOC(=O)c1ccc(NC(=S)NC(=O)c2c(Cl)cnn2C)cc1,inactive: -2.48%
14,N#C/C(=C(/O)COC(=O)COc1cccc(Br)c1)c1nc2ccccc2[nH]1,active: -78.4%
15,O=[N+]([O-])/C(=C\Nc1ccccc1)S(=O)(=O)c1ccccc1,inactive: 46.3%
16,COC(=O)[C@@]12CCCN1[C@H](c1ccc(-c3ccccc3)c(OC)c1)[C@H]1C(=O)N(C)C(=O)[C@H]12,inactive: 17.3%
17,Cc1ccc(N/C=C(\C2OC(=O)c3ccccc32)[N+](=O)[O-])c(C)c1 (configuration not stated),inconclusive: -45.9%
18,C=CCC[C@@H](Cc1ccc(F)cc1)C(=O)OC[C@@H](NC(=O)[C@@H](CC=C)CC(=O)N(CCO)Cc1ccccc1)c1ccccc1,active: -101%
19,COc1ccc(C)cc1-n1c(SCC(=O)NCc2ccco2)nc2c([nH]c3ccccc32)c1=O,inconclusive: -40.6%
20,O=C(COc1cccnc1[N+](=O)[O-])Nc1ccc2c(c1)CCC2,inconclusive: -44.1%
21,Cc1ccc(S(=O)(=O)c2nnn3c2nc(NC2CCCCC2)c2sccc23)cc1C,active: -91.6%
22,COc1ccc(NC(=O)CN2C(=O)C(=O)c3ccccc32)c(OC)c1,inactive: 49.1%

row,Compound,"activity change, negative = inhibition"
1,COc1ccc(NS(=O)(=O)c2cccc(C(=O)NCC3(N4CCOCC4)CCCCC3)c2)cc1,active: -67%
2,Cc1c(C(=O)Nc2ccccc2F)sc2nc3n(c(=O)c12)CCC3,inactive: 36.6% and inactive: 21.6%
3,Cc1cc(C)c(S(=O)(=O)Nc2ccccc2C(=O)N2CCOCC2)c(C)c1,inactive: -16.7%
4,Cc1ccc(C(=O)COC(=O)c2ccc3c(c2)C(=O)N(c2cccc4ncccc24)C3=O)cc1,active: -94.1%
5,COc1cccc(CNS(=O)(=O)c2c(C(=O)N3CCCC3)c(C)n(C)c2C)c1,inconclusive: -40.5%
6,COC(=O)c1cccc(NC(=O)c2nn(C)c(=O)c3ccccc23)c1,inactive: 46%
7,CSc1ccccc1NC(=O)c1ccc([N+](=O)[O-])cc1,inconclusive: -40.1%
8,CCc1cc(=O)oc2cc(C)cc(OCC(=O)C(C)(C)C)c12,inconclusive: -48.4%
9,Cc1cccc(N(CC(=O)N2CCCC2)S(=O)(=O)c2ccccc2)c1,inactive: 30.5%
10,CCOC(=O)c1ccc(NC(=S)N(CCN2CCCCCC2)Cc2cccs2)cc1,inconclusive: -43.4%
11,Cc1cc(NC(=O)C(C)Oc2ccc(C(C)(C)C)cc2)no1 (configuration not stated),inactive: -35%
12,CC(=O)N1CCc2cc(Br)cc(S(=O)(=O)CCC(=O)N3CCN(c4cccc(C)c4C)CC3)c21,inconclusive: -48.5%
13,O=C(Cn1cc(/C=C\[N+](=O)[O-])c2ccccc21)Nc1ccccc1,inconclusive: -53.1%
14,Cc1nc(SCc2ccccc2)c2ccsc2n1,inconclusive: -55.8%
15,CN(C)c1ccc(-c2nc3ccc(Cl)cn3c2Nc2ccc3c(c2)OCCO3)cc1,inactive: 101%
16,CCc1nn(C(C)C(=O)N2CCN(c3ccc(OC)cc3)CC2)c(=O)c2cc3occc3n12 (configuration not stated),inactive: -37.5%
17,Cn1c(N2CCOCC2)nc(-c2ccccc2)c1-c1ccccc1,inconclusive: -52.9%
18,Cc1ccc(NC(=S)NNC(=S)Nc2ccc(C)cc2C)cc1,inconclusive: -45.6%
19,COc1ccc(-c2cc(=O)c3cccc(CC(=O)O)c3o2)cc1,inactive: 6.61%
20,CCOc1ccc(Cn2nnc(C(=O)NCCc3ccc(Cl)cc3)c2N)cc1,inactive: 11%
21,Cc1cc(NC(=O)c2cc(-c3ccc(OC(C)C)cc3)nc3ccccc23)no1,inactive: 4.96%

# Rewritten with tabs: entries from further up.
row	Compound	activity change, negative = inhibition
5	COc1cccc(CNS(=O)(=O)c2c(C(=O)N3CCCC3)c(C)n(C)c2C)c1	inconclusive: -40.5%
6	COC(=O)c1cccc(NC(=O)c2nn(C)c(=O)c3ccccc23)c1	inactive: 46%
